Assay results published in article PMC5303273.
No constants are given. Whether binding was seen depends on the method and setting. For some assays here: In cells and extracts the contact can be indirect. Some entries that bind do so weakly or less than the wild type. For some assays here: Sequences can lack the tags named with a protein.

Chains of the proteins cited; added tags and fusions are not shown.
UniProt O18332: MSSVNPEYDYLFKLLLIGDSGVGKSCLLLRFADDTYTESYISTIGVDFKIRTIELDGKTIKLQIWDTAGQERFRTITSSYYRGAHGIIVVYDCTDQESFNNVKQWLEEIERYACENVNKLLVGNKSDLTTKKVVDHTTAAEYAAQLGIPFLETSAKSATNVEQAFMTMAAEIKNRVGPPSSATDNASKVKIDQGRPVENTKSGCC

T1: GST-Rab11 (Drosophila melanogaster) (UniProt O18335)
T1 sequence: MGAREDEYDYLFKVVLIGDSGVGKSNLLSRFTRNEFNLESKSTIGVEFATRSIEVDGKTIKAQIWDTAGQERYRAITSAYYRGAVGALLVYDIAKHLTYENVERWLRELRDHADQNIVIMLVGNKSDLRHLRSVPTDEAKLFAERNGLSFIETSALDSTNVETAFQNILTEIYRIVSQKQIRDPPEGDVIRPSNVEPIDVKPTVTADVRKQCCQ


Tests used:
[1] = target: T1, GST-Rab11 (Drosophila melanogaster); experiment: pull-down; GST, GST-Rab1 or GST-Rab11 on Glutathione-Sepharose 4B beads incubated with larval brain lysates from animals expressing GFP-Cog7; 25 mM Tris-HCl pH 7.4, 150 mM NaCl, 0.5% NP-40, 1 mM EDTA; 4°C for 2 h; blot with anti-GFP; only the target purified
[2] = target: Rab1 bait (yeast two-hybrid) (Drosophila melanogaster) (UniProt O18332); experiment: two-hybrid; B42/lexA system, strain EGY48, bait in pEG202, prey in pJG4-5; X-GAL plates with raffinose or galactose; beta-galactosidase assay with ONPG

Row | binding [1] | binding [2] | Binder
1 | binds | – | GFP-Cog7 (protein, UniProt Q9VAD6 1-742) MDVSALSETTFSPAEWINANYKKFVEENGRDDSEAASAFIRSYVAKLQLYIFNVNNAVEESSRQVVASMPRIAKESAALQADVHRLQEKMSAMRLEVAAVQSETGECMATLERLNTKSQKLQVAKESLQESDGWGNLLAELEDGFERNDLKGVCDKLIALQKSLHAQEQLPGHAERQTQVEDFKNRLEALASPSVVQCFAEGNTEQAQHFVQIFTSIQRLPQLQQYYRAVQKNFWQQQWKQTLELQGTESQPQQQQFLTLYYDQLLEHCQRQVKWCSNLFGENSPQPFLVIAELLPALQPTRDAHILQLLKTSNERLEMLALFAKVNHSFVLHLNSLLEQSHITLSEELHRLLGEAIFEYFHKFIQQYPRLEETQLSTQVDRLSSNQATPSDGVRHLEESTRKLYEWLKEACERCASITSDLALCKLITLLNGIFKRQLESFGRIQRQIGLSLGSSSYAAQSENWSLLQYTMSQLQCLADFQVQLHQFEQDLHTRMVMLSNRLTKPSNRGPITIFQTCDHAARTQLLNSIADYQQKKSEATDSLGIFPQIYATLKSHFADTHDITLNILLQPIETHLAHIRPPVQDHAASGIEMPSFSFAPQESITQIGQYLLTLPQHLEPLLLSPSSLLKQALEVCNIKYTQAIPCADVLLSLVVEQCCVLYVTQILQIKSLPSSAATQLSVDIEYLSNVLEELGLSINLQLSQILTLLKAAPDQYLTLSSGCEPRLVTAIRQMRNIISTQ
2 | – | no binding | Cog7 prey (yeast two-hybrid) (protein, UniProt Q9VAD6 1-742) MDVSALSETTFSPAEWINANYKKFVEENGRDDSEAASAFIRSYVAKLQLYIFNVNNAVEESSRQVVASMPRIAKESAALQADVHRLQEKMSAMRLEVAAVQSETGECMATLERLNTKSQKLQVAKESLQESDGWGNLLAELEDGFERNDLKGVCDKLIALQKSLHAQEQLPGHAERQTQVEDFKNRLEALASPSVVQCFAEGNTEQAQHFVQIFTSIQRLPQLQQYYRAVQKNFWQQQWKQTLELQGTESQPQQQQFLTLYYDQLLEHCQRQVKWCSNLFGENSPQPFLVIAELLPALQPTRDAHILQLLKTSNERLEMLALFAKVNHSFVLHLNSLLEQSHITLSEELHRLLGEAIFEYFHKFIQQYPRLEETQLSTQVDRLSSNQATPSDGVRHLEESTRKLYEWLKEACERCASITSDLALCKLITLLNGIFKRQLESFGRIQRQIGLSLGSSSYAAQSENWSLLQYTMSQLQCLADFQVQLHQFEQDLHTRMVMLSNRLTKPSNRGPITIFQTCDHAARTQLLNSIADYQQKKSEATDSLGIFPQIYATLKSHFADTHDITLNILLQPIETHLAHIRPPVQDHAASGIEMPSFSFAPQESITQIGQYLLTLPQHLEPLLLSPSSLLKQALEVCNIKYTQAIPCADVLLSLVVEQCCVLYVTQILQIKSLPSSAATQLSVDIEYLSNVLEELGLSINLQLSQILTLLKAAPDQYLTLSSGCEPRLVTAIRQMRNIISTQ
